PubChem BioAssay AID248 (DTP/NCI, 2004)
The list is a part of this screen's results and no random one: it is rich in T/C values a quarter to a half above the control, in often repeated tests (any T/C) and in doses without a T/C. Other doses and runs of a compound stand elsewhere. T/C: endpoint of the treated group in % of that of the vehicle group. Some doses have a count of surviving animals in place of a T/C: the source files T/C as zero there, which appears to mark a toxic dose or a test without result, not a measured value. Some doses without a T/C left all or most animals alive at the check, yet need not have been tolerated: the source hardly ever lists a survival T/C far under the control, and the zero likely stands for such cases as well. Survivors were counted at the toxicity check, usually on the fifth day, unless a day is given; later deaths do not show. Schedules are NCI's codes, read here as Q, the interval in days (D) or hours (H), X, the number of doses. Some schedules carry Z or #; the key to these is not given. Some entries were tested several times; the values are given in rising order. Where survival is the endpoint, this PubChem deposit counts one and a half times the control or more as active, and values a quarter to a half above the control carry no call in these data; other NCI protocols may use other cut-offs. Brackets with × give the number of equal values in this list. Some T/C values are followed by the survivors on the day toxicity was checked, most often the fifth; without a count, all were alive then.

System: L1210 leukemia ip in BDF1 mice, survival T/C
Assay: NCI In Vivo Anticancer Drug Screen. Data for tumor model L1210 Leukemia (intraperitoneal) in B6D2F1 (BDF1) mice
Conditions: T/C endpoint: mean survival time, higher T/C = longer survival
[1] = dose: 300.0 mg/kg/injection, schedule: Q01DX001 (ip), vehicle: saline
[2] = dose: 25.0 mg/kg/injection, schedule: Q01DX009 (ip), vehicle: saline with Tween-80
[3] = dose: 400.0 mg/kg/injection, schedule: Q04DX002 (ip), vehicle: saline
[4] = dose: 300.0 mg/kg/injection, schedule: Q01DX001 (ip), vehicle: carboxymethylcellulose (CMC)

## BrC1=C(Br)C(Br)(Br)C(Br)=C1Br
dose: 40.0 mg/kg/injection, schedule: Q01DX001 (ip), vehicle: saline
  survivor count: 1 of 6
dose: 75.0 mg/kg/injection, schedule: Q01DX001 (ip), vehicle: saline
  survivor count: 1 of 6
dose: 150.0 mg/kg/injection, schedule: Q01DX001 (ip), vehicle: saline
  survivor count: 0 of 6
[1]
  survivor count: 0 of 6

## ICc1nc2ccccc2[nH]1
dose: 75.0 mg/kg/injection, schedule: Q01DX001 (ip), vehicle: steroid suspending solution
  survivor count: 4 of 6
dose: 150.0 mg/kg/injection, schedule: Q01DX001 (ip), vehicle: steroid suspending solution
  survivor count: 0 of 6
dose: 300.0 mg/kg/injection, schedule: Q01DX001 (ip), vehicle: steroid suspending solution
  survivor count: 0 of 6

## C[CH2][Sn]1([CH2]C)[O]OC(c2ccccc2)[O]1 (stereo not drawn)
dose: 6.25 mg/kg/injection, schedule: Q01DX009 (ip), vehicle: saline with Tween-80
  T/C: 125 % of control [9 of 10 alive]
[2]
  survivor count: 5 of 10
dose: 25.0 mg/kg/injection, schedule: Q04DX002 (ip), vehicle: saline with Tween-80
  survivor count: 0 of 3
dose: 100.0 mg/kg/injection, schedule: Q04DX002 (ip), vehicle: saline with Tween-80
  survivor count: 0 of 3
dose: 200.0 mg/kg/injection, schedule: Q04DX002 (ip), vehicle: saline with Tween-80
  survivor count: 0 of 3
dose: 400.0 mg/kg/injection, schedule: Q04DX002 (ip), vehicle: saline with Tween-80
  survivor count: 0 of 3

## CC(=O)/C=C\c1ccc([N+](=O)[O-])o1
dose: 400.0 mg/kg/injection, schedule: Q04DX002 (ip), vehicle: Klucel (hydroxypropylcellulose) (HPC)
  survivor count: 2 of 3

## COc1cc(/C=C/[N+](=O)[O-])c([N+](=O)[O-])cc1OC
dose: 200.0 mg/kg/injection, schedule: Q01DX009 (ip), vehicle: saline with Tween-80
  survivor count: 3 of 6
dose: 400.0 mg/kg/injection, schedule: Q01DX001 (ip), vehicle: saline
  survivor count: 0 of 4

## Nc1nc(=S)c2ncn(C3OC(COC(=O)c4ccc(Cl)cc4)C(OC(=O)c4ccc(Cl)cc4)C3OC(=O)c3ccc(Cl)cc3)c2[nH]1 (stereo not drawn)
dose: 5.3 mg/kg/injection, schedule: Q01DX Z (ip), vehicle: carboxymethylcellulose (CMC)
  T/C: 130 % of control
dose: 8.0 mg/kg/injection, schedule: Q01DX Z (ip), vehicle: carboxymethylcellulose (CMC)
  T/C: 139 % of control
dose: 25.0 mg/kg/injection, schedule: Q01DX Z (ip), vehicle: saline
  T/C: 128 % of control [6 of 7 alive]
dose: 29.0 mg/kg/injection, schedule: Q01DX Z (ip), vehicle: carboxymethylcellulose (CMC)
  T/C: 139 % of control
dose: 44.0 mg/kg/injection, schedule: Q01DX Z (ip), vehicle: carboxymethylcellulose (CMC)
  T/C: 139 % of control (2×)
dose: 66.0 mg/kg/injection, schedule: Q01DX Z (ip), vehicle: carboxymethylcellulose (CMC)
  T/C: 145 % of control
dose: 67.0 mg/kg/injection, schedule: Q01DX Z (ip), vehicle: carboxymethylcellulose (CMC)
  T/C: 131 and 135 % of control
dose: 100.0 mg/kg/injection, schedule: Q01DX Z (ip), vehicle: carboxymethylcellulose (CMC)
  T/C: 135 and 142 % of control
dose: 100.0 mg/kg/injection, schedule: Q01DX Z (ip), vehicle: saline
  survivor count: 7 of 7
dose: 150.0 mg/kg/injection, schedule: Q01DX Z (ip), vehicle: carboxymethylcellulose (CMC)
  T/C: 133 % of control
dose: 200.0 mg/kg/injection, schedule: Q01DX Z (ip), vehicle: saline
  survivor count: 6 of 7

## CC[CH2][Pb]([CH2]CC)([CH2]CC)[N]1C(=O)c2ccccc2C1=O
dose: 12.5 mg/kg/injection, schedule: Q01DX009 (ip), vehicle: saline
  survivor count: 5 of 6
dose: 25.0 mg/kg/injection, schedule: Q04DX002 (ip), vehicle: saline
  survivor count: 2 of 3
dose: 50.0 mg/kg/injection, schedule: Q04DX002 (ip), vehicle: saline
  survivor count: 0 of 3
dose: 100.0 mg/kg/injection, schedule: Q04DX002 (ip), vehicle: saline
  survivor count: 1 of 3
dose: 200.0 mg/kg/injection, schedule: Q04DX002 (ip), vehicle: saline
  survivor count: 3 of 3
[3]
  survivor count: 1 of 3

## C=CCc1cc(OC)cc(C(=O)c2cccc(OC)c2C#N)c1OC
dose: 100.0 mg/kg/injection, schedule: Q04DX002 (ip), vehicle: other
  survivor count: 3 of 3

## CC(C)(CO)N=Cc1ccccc1O.CC(C)(CO)N=Cc1ccccc1O.[Ni]
dose: 300.0 mg/kg/injection, schedule: Q01DX001 (ip), vehicle: other
  survivor count: 1 of 6

## CCCCCCCCCCCc1nc(N)nc(NCCc2ccccc2)n1
dose: 50.0 mg/kg/injection, schedule: Q01DX009 (ip), vehicle: Klucel (hydroxypropylcellulose) (HPC)
  survivor count: 2 of 3

## O=C1OC(c2cccc(Cl)c2)=N/C1=C\c1ccccc1O
dose: 200.0 mg/kg/injection, schedule: Q01DX009 (ip), vehicle: Klucel (hydroxypropylcellulose) (HPC)
  survivor count: 6 of 6

## O=C1C(=O)c2ccccc2C(O)=C1CN1CCC1
dose: 400.0 mg/kg/injection, schedule: Q01DX001 (ip), vehicle: saline with Tween-80
  survivor count: 0 of 3

## O=S(=O)(O)c1ccccc1/C=N\N=C\c1ccccc1S(=O)(=O)O
dose: 400.0 mg/kg/injection, schedule: Q04DX003 (ip), vehicle: saline
  T/C: 130 % of control

## CN(C)C1=CS(=O)(=O)C1
[1]
  survivor count: 0 of 6

## Nc1nc(=S)c2[nH]c(N=Nc3ccc(S(=O)(=O)Nc4ncccn4)cc3)nc2[nH]1
dose: 45.0 mg/kg/injection, schedule: Q04DX003 (ip), vehicle: Klucel (hydroxypropylcellulose) (HPC)
  T/C: 148 % of control
dose: 65.0 mg/kg/injection, schedule: Q04DX003 (ip), vehicle: Klucel (hydroxypropylcellulose) (HPC)
  T/C: 132 % of control
dose: 200.0 mg/kg/injection, schedule: Q04DX003 (ip), vehicle: Klucel (hydroxypropylcellulose) (HPC)
  T/C: 128 and 134 % of control
dose: 400.0 mg/kg/injection, schedule: Q01DX009 (ip), vehicle: Klucel (hydroxypropylcellulose) (HPC)
  survivor count: 1 of 6
dose: 400.0 mg/kg/injection, schedule: Q04DX003 (ip), vehicle: saline with Tween-80
  survivor count: 1 of 6

## CNCC1C=CCCC1 (stereo not drawn)
[3]
  survivor count: 2 of 3

## CCCCCCCCCCCCN1C(C)=CS/C1=C\C=C\c1scc(C)[n+]1CCCCCCCCCCCC
dose: 3.12 mg/kg/injection, schedule: Q01DX009 (ip), vehicle: saline with Tween-80
  T/C: 125 % of control
dose: 12.5 mg/kg/injection, schedule: Q01DX009 (ip), vehicle: saline with Tween-80
  survivor count: 5 of 6
[2]
  survivor count: 0 of 6

## CC(CN1c2ccccc2Sc2ccc(Cl)cc21)N(C)CCCl (stereo not drawn)
dose: 150.0 mg/kg/injection, schedule: Q01DX001 (ip), vehicle: carboxymethylcellulose (CMC)
  survivor count: 1 of 6 and 3 of 6
[4]
  T/C: 126 % of control [4 of 6 alive]
  survivor count: 0 of 6

## CC(C#N)OC(=O)c1ccccc1 (stereo not drawn)
dose: 50.0 mg/kg/injection, schedule: Q01DX001 (ip), vehicle: saline
  survivor count: 2 of 6
dose: 55.0 mg/kg/injection, schedule: Q04DX003 (ip), vehicle: saline
  survivor count: 0 of 6
dose: 80.0 mg/kg/injection, schedule: Q01DX009 (ip), vehicle: acetone
  survivor count: 0 of 6
dose: 80.0 mg/kg/injection, schedule: Q04DX003 (ip), vehicle: saline
  survivor count: 1 of 6
dose: 100.0 mg/kg/injection, schedule: Q01DX001 (ip), vehicle: acetone
  survivor count: 0 of 6
dose: 120.0 mg/kg/injection, schedule: Q01DX009 (ip), vehicle: acetone
  survivor count: 0 of 6
dose: 200.0 mg/kg/injection, schedule: Q01DX001 (ip), vehicle: acetone
  survivor count: 0 of 6
dose: 400.0 mg/kg/injection, schedule: Q01DX001 (ip), vehicle: acetone
  survivor count: 0 of 6

## Cn1cnc2c(SCc3ccccc3)ncnc21
dose: 150.0 mg/kg/injection, schedule: Q01DX009 (ip), vehicle: saline with Tween-80
  T/C: 125 % of control
dose: 300.0 mg/kg/injection, schedule: Q01DX009 (ip), vehicle: saline with Tween-80
  T/C: 129 % of control
dose: 400.0 mg/kg/injection, schedule: Q01DX009 (ip), vehicle: saline with Tween-80
  T/C: 138 % of control
